These results are taken from US20090196876A1.

In this assay the target is T1, UNQ1900-ECD-Fc (human) (UniProt Q6UXG8).
T1 sequence: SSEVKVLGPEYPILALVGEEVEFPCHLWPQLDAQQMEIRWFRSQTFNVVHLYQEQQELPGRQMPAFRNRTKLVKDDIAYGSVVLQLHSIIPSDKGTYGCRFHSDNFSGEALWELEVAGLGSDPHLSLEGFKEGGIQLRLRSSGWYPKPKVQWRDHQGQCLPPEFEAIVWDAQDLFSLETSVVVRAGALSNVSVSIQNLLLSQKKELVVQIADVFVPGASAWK
Nature of the assay: BiaCore; UNQ1900-ECD-Fc coated on chip, 275 proteins tested as analytes. (SPR reads the build-up and loss of mass on a sensor chip optically.)

No constants are given. Whether binding was seen depends on the method and setting. Some results given as binding are weak or reduced against the parent protein; the word gives no strength. Where a sequence is shown, tags or fusion partners need not be part of it.

B1: NT4 (ligand, UniProt P34130 81-210, looked up)
chain: GVSETAPASRRGELAVCDAVSGWVTDRRTAVDLRGREVEVLGEVPAAGGSPLRQYFFETRCKADNAEEGGPGAGGGGCRGVDRRHWVSECKAKQSYVRALTADAQGRVGWRWIRIDTACVCTLLSRTGRA
For B1, the binding entry is “binds”.

B2: EGFL8 (also called NG3) (ligand, UniProt Q99944 26-293, looked up)
chain: AKGGSLRESQGVCSKQTLVVPLHYNESYSQPVYKPYLTLCAGRRICSTYRTMYRVMWREVRREVQQTHAVCCQGWKKRHPGALTCEAICAKPCLNGGVCVRPDQCECAPGWGGKHCHVDVDECRTSITLCSHHCFNTAGSFTCGCPHDLVLGVDGRTCMEGSPEPPTSASILSVAVREAEKDERALKQEIHELRGRLERLEQWAGQAGAWVRAVLPVPPEELQPEQVAELWGRGDRIESLSDQVLLLEERLGACSCEDNSLGLGVNHR
With B2, the binding result is recorded as “binds”.

B3: BDNF (ligand, UniProt P23560 129-247, looked up)
chain: HSDPARRGELSVCDSISEWVTAADKKTAVDMSGGTVTVLEKVPVSKGQLKQYFYETKCNPMGYTKEGCRGIDKRHWNSQCRTTQSYVRALTMDSKKRIGWRFIRIDTSCVCTLTIKRGR
Regarding B3, the binding entry is on record as “binds”.

B4: NT3 (ligand, UniProt P20783 139-257, looked up)
chain: YAEHKSHRGEYSVCDSESLWVTDKSSAIDIRGHQVTVLGEIKTGNSPVKQYFYETRCKEARPVKNGCRGIDDKHWNSQCKTSQTYVRALTSENNKLVGWRWIRIDTSCVCALSRKIGRT
In the case of B4, the binding result was “binds”.
